## Percent effect of library compounds

Source: ChEMBL document CHEMBL3988442, “University of Dundee, Small-Polar-MMV Screening Library” (2021).

Values are the deposited “Percent Effect”, in %.
The record does not define 0% and 100%; most values in the screen are far below 50% and negative numbers occur (in some assays of this library far below -100).
Compounds were drawn at random from those tested, without regard to their results.

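Phenotypic screen: M. tuberculosis growth, cholesterol and DPPC medium, 4 days; the read-out is not stated. Compounds at 500 µM. The record gives no direction; compounds that gave an IC50 in retests scored well above the rest, so higher reads as more growth inhibition. Of about 18,000 compounds tested this way, about 900 (5%) reached 50% or more in at least one test.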

For CCn1cc(CN)cn1 the result was -13.88%. Result for COc1ccc(C(C)=O)cc1CN1CCCCC1 was -7.992%. For CC(C)Oc1ccc(NC(=O)NCC(=O)N(C)C)cc1 the result was -23.14%. CCN(C(=O)NCc1nnc(C)n1C1CC1)C(C)C gave -2.389%.

COCCNC(=O)[C@@H](N)CC(C)C gave -5.666%. Result for N#Cc1ccc(F)c(CN2CCn3ccnc3C2)c1 was 9.703%. Result for CS(=O)(=O)N1CC(CO)C1 was 1.303%. Nc1[nH]nc(C(=O)N2CC(N3CCCCC3)C2)c1Cl gave -6.74%.

O=C(NCCC1=CCCCC1)NC1CCS(=O)(=O)C1 (stereo not drawn) read 4.535%. For CNC(C)(C)CCO the result was 23.93%. O=S(=O)(Nc1cccnc1O)c1ccccc1Cl read 9.079%. Cn1cnnc1SCCNC(=O)c1ccncc1F gave -0.5035%.

With Cn1cccc1CN1CC(O)(CC#N)C1 the screen gave -10.24%. With CCCNC(=O)C1=NN(C)C(=O)CC1 the screen gave -12.22%. Result for COc1ccc(CN(C)CC2CCOCC2)cn1 was -4.977%. For CCN[C@H](C)CNC(=O)c1ccccc1 the result was -7.065%.

For COc1cccc(Cl)c1CN the result was -8.885%. CCOC(=O)c1ccc(S(=O)(=O)N[C@@H](C)CO)cc1 gave -4.726%. For CN(C)C1CCCN(C(=O)CCCc2cn[nH]c2)CC1 (stereo not drawn) the result was 25.56%. CC(c1cc(F)ccc1F)N(C)C(=O)CCCN (stereo not drawn) gave -6.388%.

Result for O=C(CN1CCOCC1)NCc1ccc2sccc2c1 was 4.279%. CCN(CCCOC)CC(=O)Nc1cccc(OC)c1 read 9.234%. CNC(=O)c1cc(S(=O)(=O)N2CCCC(C)C2)cs1 (stereo not drawn) read 6.437%. CCCN(C)S(=O)(=O)NC(C)c1ccc(OC)c(F)c1 (stereo not drawn) read 74.48%.

Result for Cc1cc(CNc2cc(C(N)=O)ccc2C)no1 was 4.311%. Cc1cc(=O)oc(C)c1C(=O)N1CCCCC1 gave 11.73%. CCNC(=O)NCCCOCC1CCOC1 (stereo not drawn) gave -7.578%. With Cc1cc(C(=O)NCc2ccc(F)cc2)[nH]n1 the screen gave 58.95%.

Result for NCCNC(=O)c1nc(Cn2cc(Br)cn2)no1 was 24.09%. Result for NCCCNC(=O)c1ccc2ccccc2c1O was -16.07%. CC(=O)N1CCC(N)c2ccccc21 (stereo not drawn) read -6.028%. For Cc1ccccc1-c1nc(CNC(C)(CO)CO)no1 the result was 2.125%.

Result for NC(=O)COc1cccc(CN2CCC(F)CC2)c1 was 8.046%. CC(C)OCCN1CCC(N)CC1 gave 30.66%. With Cc1noc(C)c1CN1CCC(C(=O)NC2CC2)CC1 the screen gave -8.952%. Result for Cn1ccnc1SCCNC(=O)c1ccc(C#N)cc1 was 25.91%.

O=C(NCC1CCOC1)c1sccc1-n1cccc1 (stereo not drawn) read 9.843%. Result for CN(CCNc1ccc2cc[nH]c2n1)S(C)(=O)=O was -51.03%. Result for Cc1ccc(C(N)=O)cc1NCC(C)C was 27.27%. c1ccc(CNc2cc(-n3cccn3)ncn2)cc1 gave 3.327%.

For COc1csc(-c2cc(N)n(C)n2)c1 the result was -1.61%. For Fc1ccc(CSc2nnnn2CC2CCCO2)cc1 (stereo not drawn) the result was 84.57%. N#CCCCN1CCCC1C(=O)N1CCSCC1 (stereo not drawn) read -12.8%. With NC(=O)Cc1ccccc1NC(=O)OCC(F)(F)F the screen gave 13.19%.

Result for CC(C)CN(C)CCCN was 0.5011%. COCC(=O)Nc1cccc(CN2CCCC2)c1 read -1.106%. With O=C(Nc1nnc2n1CCCC2)c1ccncc1 the screen gave -14.93%. Result for CCS(=O)(=O)NC1CCN(c2cc(Br)ccn2)CC1 was 12.25%.

NC1CCCN(C2CCCCC2)C1=O (stereo not drawn) gave 12.14%. Cc1nc(NC(=O)CNC(=O)c2ccoc2)sc1C gave -11.66%. Cc1cc(NC(C)CO)nc2ccccc12 (stereo not drawn) gave -18.76%. CCOc1ncccc1C(=O)N1CCCN(CC)CC1 gave -12.47%.

COCC(O)CNc1ncnc2c1CCNCC2 (stereo not drawn) read -28.98%. Result for Cc1ccccc1C(C)NC(=O)c1ccc(O)nc1 (stereo not drawn) was 13.39%. For CC(CCn1cccn1)NC(=O)Cc1ccsc1 (stereo not drawn) the result was -2.184%.

Once more, the final 6:

compound	effect
Cc1nc(NC(=O)CNC(=O)c2ccoc2)sc1C	-11.66
Cc1cc(NC(C)CO)nc2ccccc12 (stereo not drawn)	-18.76
CCOc1ncccc1C(=O)N1CCCN(CC)CC1	-12.47
COCC(O)CNc1ncnc2c1CCNCC2 (stereo not drawn)	-28.98
Cc1ccccc1C(C)NC(=O)c1ccc(O)nc1 (stereo not drawn)	13.39
CC(CCn1cccn1)NC(=O)Cc1ccsc1 (stereo not drawn)	-2.184